# From PubChem BioAssay AID652054 (National Center for Advancing Translational Sciences (NCATS), 2013)
# Amino acid sequences for entries named in this document (tags omitted).
# UniProt P35462, whole entry, looked up: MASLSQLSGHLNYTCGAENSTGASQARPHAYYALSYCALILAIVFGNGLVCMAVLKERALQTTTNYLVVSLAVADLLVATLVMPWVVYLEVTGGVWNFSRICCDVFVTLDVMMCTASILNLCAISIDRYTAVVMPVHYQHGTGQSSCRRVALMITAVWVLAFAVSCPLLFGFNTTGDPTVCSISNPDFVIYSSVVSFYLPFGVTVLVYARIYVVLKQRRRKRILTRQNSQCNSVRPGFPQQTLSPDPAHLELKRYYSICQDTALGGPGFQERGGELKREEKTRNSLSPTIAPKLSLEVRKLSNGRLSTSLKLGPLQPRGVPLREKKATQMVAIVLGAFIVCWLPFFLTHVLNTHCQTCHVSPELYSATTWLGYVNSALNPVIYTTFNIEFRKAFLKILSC
# Several values for one entry are separate records, joined by “and”; a condition that tells them apart may be missing. Identical values can stand only once. Hit rate of the full screen: of about 360,000 compounds, about 9,100 (2.5%) were called active. This list was built around the results that the source calls inconclusive (neither active nor inactive); the mix of calls is not that of the screen. Rule as the data show it: active = max response below about -50%; inconclusive = no clear call, values can overlap the other calls; inactive = above that.
# Target: D(3) dopamine receptor (Homo sapiens) (UniProt P35462)
# Assay: qHTS of D3 Dopamine Receptor Antagonist: qHTS
# Conditions: D3R cells, DiscoveRx beta-arrestin luminescence, antagonist mode; active compounds read low
# How it was run: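 Cells plated overnight at 1500 cells/well, then exposed to library compounds with dopamine controls for 90 minutes at 37 degrees C. DiscoveRx reagent added for 30–60 minutes at room temperature; luminescence read, quantitative HTS format.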
# % is scaled to controls: 0 for no effect and ±100 for the full control effect.
row,Compound,"max response, negative = inhibition"
1,Oc1ccc(CN2CCCCC2)nc1-c1ccccc1,active: -51.6%
2,CCCCCCCCc1nc(=S)[nH][nH]1,active: -67.4%
3,Cc1ccc(S(=O)(=O)Nc2ccc(NC(=O)CN3CCCCC3)cc2)cc1,active: -60.3%
4,O=C(CSc1nc2ccccc2c(=O)n1CCCO)Nc1ccc2c(c1)OCCO2,inconclusive: -39.5%
5,Cc1occc1C(=O)Nc1nnc(C2CCCCC2)s1,inconclusive: -37.5%
6,Cc1noc(NS(=O)(=O)c2ccc(NC(=O)Nc3ccc(Cl)c(Cl)c3)cc2)c1C,active: -77.1%
7,COc1cc2c(cc1OC)C(C1C(=O)CC(C)CC1=O)N(C(=O)CCl)CC2 (configuration not stated),inconclusive: -35.2%
8,COc1ccc(C2C=C(C)Nc3nc(SC)nn32)cc1 (configuration not stated),inconclusive: -46.5%
9,Oc1c(/C=N/Nc2cccc3cccnc23)ccc2ccccc12,inconclusive: -36.9%
10,c1cnc2c(c1)ccc1cccnc12,active: -76.7% and active: -76.5%
11,O=C(CCCN1CCC(c2ccccc2)C1)c1ccc2c(c1)OCCO2 (configuration not stated),active: -81.5%
12,Cn1c(=O)c(-c2cc(Br)ccc2N)nc2ccccc21,inconclusive: -37.1%
13,COc1cccc(COC(=O)C2CCN(S(=O)(=O)c3ccc(C)cc3)CC2)c1OC,inactive: -7.47%
14,CCOc1ccc(C2=Nn3c(nnc3-c3ccccc3OC)SC2)cc1,inconclusive: -40.3%
15,CCCCNS(=O)(=O)c1ccc(OC)cc1,inconclusive: -30.9%
16,O=S(=O)(c1cccc(-c2n[nH]c(=S)n2Cc2ccccc2)c1)N1CCOCC1,inactive: -26.9%
17,Cc1ccc(NC(=O)c2cc(-c3cc(Cl)ccc3C)n[nH]2)cc1NS(C)(=O)=O,inconclusive: -49.4%
18,CN1CCCN(S(=O)(=O)c2cccc(C(F)(F)F)c2)c2nc3ccccc3nc21,inactive: -4.99%
19,COc1ccc(C2C(C(=O)NCc3ccccn3)c3cc(OC)c(OC)cc3C(=O)N2C)cc1 (configuration not stated),inconclusive: -45.7%
20,C=CCn1c(C(C)C)nc2ccccc21,inconclusive: -41.8%
21,O=C1NN(c2ccccc2)C(=O)/C1=C/c1coc2ccccc2c1=O,inactive: 1.08%
22,O=C(C1=C[C@@H](c2ccccc2)C[C@@H](OCc2ccc(CO)cc2)O1)N1CCN(Cc2ccc3c(c2)OCO3)CC1,inconclusive: -30.6%

row,Compound,"max response, negative = inhibition"
1,C/C(=N\NC(=O)c1ccc2c(c1)OCO2)c1ccc2c(c1)OCO2,active: -54.6%
2,c1ccc(-c2cn3c4c(sc3n2)CCCC4)cc1,inconclusive: -32.5%
3,COc1ccc(C(=O)N2CCN(c3ccc(NC(=O)c4cccs4)cc3)CC2)cc1,inconclusive: -30%
4,CC(=O)N1CCc2ccc([N+](=O)[O-])cc21,inconclusive: -37.1%
5,CCOC(=O)N1CCC(NC(=O)CCC(=O)N2CC(C)Oc3ccc(C)cc32)CC1 (configuration not stated),inactive: -24.6%
6,COc1ccc(NC(=O)C(=O)NNC(=O)c2cccs2)c(OC)c1,active: -73%
7,COc1ccccc1N1CCN(Cc2ccc(O)c3ncccc23)CC1,active: -105%
8,O=C(CN1CCCCCC1)NC(c1ccccc1)c1ccccc1,inconclusive: -38.2%
9,O=C(Cn1ncc(Cl)c(Cl)c1=O)Nc1ccc2c(c1)OCO2,inconclusive: -48.9%
10,Oc1c(C(c2cccs2)N2CCC3(CC2)OCCO3)sc2ncnn12 (configuration not stated),inconclusive: -40.1%
11,CCN(CC1COc2ccccc2O1)C(=S)Nc1ccccc1 (configuration not stated),inconclusive: -38.2%
12,O=C(COC(=O)C1=COCCO1)Nc1ccccc1,inconclusive: -36%
13,COc1ccc(F)cc1-c1cc(NC=O)c2ncc(-c3cccc(C(=O)N(C)C)c3)n2c1,inconclusive: -30.1%
14,O=c1c(O)c(-c2cccs2)oc2ccccc12,inconclusive: -44.1%
15,CCOC(=O)C(CCSC)Nc1nc(Cl)nc(Nc2ccc(Cl)cc2)n1 (configuration not stated),active: -58.1%
16,N=C(N)SCc1cccc2ccccc12,active: -51.3%
17,Nc1ccc(-c2sc(N)nc2-c2ccccc2)cc1,inconclusive: -32.7%
18,CCOC(=O)C1=CN(Cc2cccc(F)c2)S(=O)(=O)NC1c1ccc(Br)cc1F (configuration not stated),inconclusive: -35.4%
19,CCNC(=S)N/N=C/c1cc(Br)cc(Br)c1OC,inconclusive: -32.4%
20,CS(=O)(=O)N(CC(=O)N1CCCC1)c1ccc(Cl)cc1Cl,inactive: -4.55%
21,CC1(C)C2CCC1(CS(=O)(=O)N1CCOCC1)C(=O)C2 (configuration not stated),inactive: 14.7%
22,Cc1cccc(Cc2c(C)nc3c(C(=O)N4CCN(Cc5ccc6c(c5)OCO6)CC4)cnn3c2C)c1,inconclusive: -33.1%

row,Compound,"max response, negative = inhibition"
1,Fc1ccc2cnc(-c3ccccc3)c(-c3cccc(C(F)(F)F)c3)c2c1,active: -64%
2,Cc1ccc(CNC(=O)C2CCN(S(=O)(=O)N3CCCC3)CC2)cc1,inactive: 1.33%
3,Cc1cc(C)c(C)c(S(=O)(=O)NCc2ccc(C(=O)NCC3CCCO3)cc2)c1C (configuration not stated),inconclusive: -36.7%
4,O=C(O)c1cccc(CSc2nc(-c3ccc(Cl)cc3)cc(C(F)(F)F)n2)c1,inconclusive: -32.8%
5,Cc1[nH]n(C(N)=S)c(=O)c1N=Nc1ccc([N+](=O)[O-])cc1Cl,inactive: -11%
6,O=C(c1ccc(Cl)c(Cl)c1)N(Cc1ccco1)c1ccc(O)cc1,inconclusive: -36.8%
7,Cc1ccc(N=Nc2c(N)[nH]n3c(=O)cc(-c4ccccc4)nc23)cc1,inactive: -28.2%
8,CCOc1ccc(N(Cc2ccc(C(=O)O)cc2)S(=O)(=O)c2ccc(C)cc2)cc1,inactive: 8.52%
9,COc1ccc(OC)c(-n2c(SCC(=O)Nc3cc(C)on3)nnc2-c2c[nH]c3ccccc23)c1,active: -51.3%
10,CCCOc1ccc(-c2c(=O)n(O)c3ccccc3[n+]2[O-])cc1,inconclusive: -47%
11,CCOC(=O)N1CCN(Cc2cc(Cl)c3cccnc3c2O)CC1,active: -55.3%
12,O=C(CN1C(=O)c2ccccc2C1=O)Nc1sc2c(c1C(=O)NCc1ccco1)CCCC2,inconclusive: -41.5%
13,CC1=CC(C)(C)N2C(=O)C3(SCC(=O)N3c3ccc(F)cc3)c3cc(C)cc1c32 (configuration not stated),inconclusive: -41.3%
14,O=S(=O)(c1ccccc1)c1nc(-c2ccccc2)oc1NCCCN1CCOCC1,active: -64.3%
15,COc1ccc(OC)c(S(=O)(=O)Nc2ccccc2C(=O)O)c1,inconclusive: -47.6%
16,COc1ccccc1/C=C/C=N/n1c(C2CCCCC2)n[nH]c1=S,inconclusive: -30.7%
17,Cc1cc(C)c2cc(C#N)c(NCCOC(=O)c3ccccc3C)nc2c1,inactive: 11.5%
18,C[C@H]1CN[C@@H](CCO)/C1=C\c1ccccc1,inconclusive: -32.8%
19,COC(=O)c1ccc(C)c(NC(=O)c2ccc(CN3CCc4ccccc4C3)cc2)c1,active: -92.2%
20,COC(=O)c1[nH]c2cccc(OC)c2c1NC(=O)CN1CCN(c2cccc(OC)c2)C(C)C1 (configuration not stated),inconclusive: -33%
21,Cc1ccccc1CN1C(=O)c2ccccc2Sc2ccc(C(=O)NCCCN3CCOCC3)cc21,inconclusive: -39.2%
22,OC(COc1ccc(F)cc1Cl)CN1CCC(Cc2ccccc2)CC1 (configuration not stated),active: -78.9%

row,Compound,"max response, negative = inhibition"
1,COc1ccccc1N1CCN(CC(O)COc2cccc3ccccc23)CC1 (configuration not stated),active: -96.2% and active: -99.3%
2,COc1ccc(Nc2cc(C)nc(-n3nc(C)cc3C)n2)cc1,inconclusive: -45%
3,CCN(CC(=O)NC1CCS(=O)(=O)C1)S(=O)(=O)c1cc(C)ccc1C (configuration not stated),inactive: 5.82%
4,CC(C)Oc1cccc(C(=O)C2CCCN(Cc3cnc(N4CCCC4)s3)C2)c1 (configuration not stated),active: -82.7%
5,CC1CCN(CCCNC(=O)COc2cc(=O)n(C)c3ccccc23)CC1,active: -74.8%
6,Cc1ccc(/C=c2\s/c(=C(/C#N)C(=O)N3CCCC3)n(Cc3ccco3)c2=O)s1,inconclusive: -34.5%
7,COCCNC(=O)Cc1cn(C)c2ccccc12,inconclusive: -30.2%
8,Cc1noc(C)c1NC(=O)N(C)C[C@H]1Oc2ccc(NC(=O)CCC(F)(F)F)cc2C(=O)N([C@H](C)CO)C[C@@H]1C,inconclusive: -38.3%
9,CCN(CC(=O)NCc1ccc(Cl)cc1)C(=O)CCOc1ccc(C)cc1,inconclusive: -31.7%
10,Cc1ccc(-c2c3c(=O)n(C)c(=O)n(C)c3cn2Cc2ccccn2)cc1,inconclusive: -32.4%
11,CCN1C(=O)NC(c2ccccc2)C1=O (configuration not stated),inactive: 6.5%
12,CCOC(=O)C1=NN(C(=O)Nc2cccc(C(F)(F)F)c2)C2C(=O)N(c3cccc(C(F)(F)F)c3)C(=O)C12 (configuration not stated),inconclusive: -32.1%
13,CCCN(CCC(=O)Nc1ccccc1F)CC1CC1,inconclusive: -47%
14,CCCC1=Nc2cc(C(=O)NCCN3CCCC3)ccc2Sc2ccccc21,inconclusive: -34.3%
15,O=C(COc1cccc2ccccc12)N/N=C/c1ccccc1OCc1ccc(C(=O)O)cc1,inactive: -21.1%
16,CC(C)(CN1CCN(Cc2ccccc2)CC1)NS(=O)(=O)c1ccccc1,active: -51.9%
17,COc1ccccc1-n1c(CNc2ccc(F)cc2)nnc1SCC(=O)Nc1cc(C)on1,inconclusive: -49.9%
18,CCS(=O)(=O)c1ccc(C(=O)NC2CC2)c(Cl)c1Cl,inconclusive: -33.8%
19,O=C(CCNc1cc(Cl)cc(Cl)c1)c1ccco1,inactive: 7.53%
20,CCOC(=O)[C@@H]1[C@H]2COc3ccc(Br)cc3[C@@H]2N2C(=O)N(c3ccc(Cl)cc3)C(=O)[C@]12C,inconclusive: -31.3%
21,NC(=O)C[C@H]1NC(=O)[C@H](CCC(=O)O)NC(=O)c2cc([N+](=O)[O-])cc(I)c2NCCC[C@@H](C(N)=O)NC1=O,inconclusive: -36.5%
